Publication PMC9217950
Results are given in words; binding and its absence hold for the method and conditions named. In cells and extracts the contact can be indirect. A yes stands for co-enrichment or nearness to the bait. Other partners may have been found. For some assays here: No binding means not detected with the bait. Where a sequence is shown, tags or fusion partners need not be part of it.

By UniProt entry, the sequences of proteins in these tests, tags left out.
UniProt P25963: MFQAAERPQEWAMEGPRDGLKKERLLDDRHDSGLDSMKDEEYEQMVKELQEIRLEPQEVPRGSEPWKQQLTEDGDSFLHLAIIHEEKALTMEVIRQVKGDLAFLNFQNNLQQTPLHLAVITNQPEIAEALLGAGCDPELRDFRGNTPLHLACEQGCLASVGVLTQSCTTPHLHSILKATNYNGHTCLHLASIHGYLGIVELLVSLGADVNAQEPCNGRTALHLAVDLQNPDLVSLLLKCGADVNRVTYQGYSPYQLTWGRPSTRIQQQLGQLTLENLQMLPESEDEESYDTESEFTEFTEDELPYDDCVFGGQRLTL

Experiments:
[1] = molecular target: T1, FLAG-GST-PRDX3 (20 K human protein beads array) (human) (UniProt P30048); assay: proximity labelling; CF-PPiD on the 20 K human protein beads array: 19,712 FG-tagged human proteins as dual spots on 27 1536-well plates; AirID-IκBα translational mixture with biotin and ATP; signals normalised to RelA on each plate; only the target purified
T1 sequence: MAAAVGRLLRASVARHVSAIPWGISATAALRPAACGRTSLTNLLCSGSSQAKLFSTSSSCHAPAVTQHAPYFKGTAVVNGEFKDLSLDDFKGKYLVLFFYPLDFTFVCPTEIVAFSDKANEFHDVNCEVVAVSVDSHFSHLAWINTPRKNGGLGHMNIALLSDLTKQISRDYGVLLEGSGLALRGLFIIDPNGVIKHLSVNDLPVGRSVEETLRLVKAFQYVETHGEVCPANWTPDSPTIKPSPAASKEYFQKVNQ

[2] = molecular target: T2, FLAG-GST-methylcrotonyl-CoA carboxylase subunit 1 (MCCC1) (human) (UniProt Q96RQ3); assay: as above
T2 sequence: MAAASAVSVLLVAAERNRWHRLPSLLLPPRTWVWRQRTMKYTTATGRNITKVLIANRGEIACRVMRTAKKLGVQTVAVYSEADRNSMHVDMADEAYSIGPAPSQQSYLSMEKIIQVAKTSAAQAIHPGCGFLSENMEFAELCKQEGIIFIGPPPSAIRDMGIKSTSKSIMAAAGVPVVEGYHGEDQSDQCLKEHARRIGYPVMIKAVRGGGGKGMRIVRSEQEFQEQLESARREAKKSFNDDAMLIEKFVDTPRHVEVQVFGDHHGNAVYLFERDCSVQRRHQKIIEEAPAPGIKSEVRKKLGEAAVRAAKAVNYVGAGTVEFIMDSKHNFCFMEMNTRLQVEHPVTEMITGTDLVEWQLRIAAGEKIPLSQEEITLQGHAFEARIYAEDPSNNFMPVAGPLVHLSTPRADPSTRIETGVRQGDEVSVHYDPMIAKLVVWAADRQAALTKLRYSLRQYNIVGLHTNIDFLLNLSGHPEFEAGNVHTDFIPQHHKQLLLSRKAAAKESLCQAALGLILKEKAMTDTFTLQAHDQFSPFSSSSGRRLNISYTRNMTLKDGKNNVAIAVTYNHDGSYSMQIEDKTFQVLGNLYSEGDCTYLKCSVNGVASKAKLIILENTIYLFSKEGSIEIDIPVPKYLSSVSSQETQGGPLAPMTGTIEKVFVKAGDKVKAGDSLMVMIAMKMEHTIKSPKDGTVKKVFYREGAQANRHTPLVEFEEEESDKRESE

binding [1]: binds | binding [2]: no binding
Substance: AirID N-terminally fused to IκBα (from UniProt P25963 1-317)
